The results in this text go back to PubChem BioAssay AID1273 (Columbia University Molecular Screening Center, 2008).

The other results are listed elsewhere or left out. Some of these compounds have results that are not shown, active ones among them.

A short description of the assay: insulin gene promoter suppression in islet cells – imaging, TRM-6 cells (human fetal islet line), eGFP reporter, cell count, primary screen (AID 1273;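 also: cells exposed to compound for 48 h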). To be noted: measured here: cell count, toxicity, at 2 µM, reporter expression induced with tamoxifen.
Compound `O=C(OC1CN2CCC1CC2)C(CO)(c1ccccc1)c1ccccc1` (stereo not given) gave a normalized cell count of 111%.

For the compound `CN(C)c1cccc(C(=O)NCC2(N(C)C)CCCCC2)c1`, the normalized cell count was found to be 144%.

`CN(C)C1CCCC1OC(=O)C(O)(c1ccccc1)c1ccccc1` (stereo not given): the normalized cell count was 141%.

`CCN1CCCC(OC(=O)C2(O)c3ccccc3C=Cc3ccccc32)C1` (stereo not given): the normalized cell count turned out to be 46%.

As to `CC(C)N1C(=O)CC2(CCN(CCOC(=O)C(O)(c3ccccc3)c3ccccc3)CC2)C1=O`, the normalized cell count amounted to 104%.
